{"source": "paper PMC7423924", "about": "(Nature Communications, 2020)", "test": "general procedure: Fmoc solid-phase peptide synthesis; 2-chlorotrityl chloride polystyrene resin (loading: 1.6 mmol g-1); COMU, Oxyma Pure", "settings": "whole synthesis, scale of the general procedure 30 µmol; for final HPLC purity: 280 nm", "note": "HELM strings list residues between dots; [ac] is acetyl, [am] amide, other brackets name non-standard units.", "data": [{"substance": "PEPTIDE1{E.E.E.W.W.[W(BODIPY)].G}$PEPTIDE1,PEPTIDE1,1:R1-7:R2$$$V2.0", "values": [{"measurement": "final HPLC purity", "value": 99, "unit": "%"}, {"measurement": "isolated yield", "value": 73, "unit": "%"}]}, {"substance": "PEPTIDE1{K.K.K.F.F.[W(BODIPY)].G}$PEPTIDE1,PEPTIDE1,1:R1-7:R2$$$V2.0", "values": [{"measurement": "final HPLC purity", "value": 98, "unit": "%"}, {"measurement": "isolated yield", "value": 73, "unit": "%"}]}, {"substance": "PEPTIDE1{K.K.K.K.K.[W(BODIPY)].G}$PEPTIDE1,PEPTIDE1,1:R1-7:R2$$$V2.0", "values": [{"measurement": "final HPLC purity", "value": 97, "unit": "%"}, {"measurement": "isolated yield", "value": 91, "unit": "%"}]}, {"substance": "PEPTIDE1{K.K.K.K.W.[W(BODIPY)].G}$PEPTIDE1,PEPTIDE1,1:R1-7:R2$$$V2.0", "values": [{"measurement": "final HPLC purity", "value": 98, "unit": "%"}, {"measurement": "isolated yield", "value": 43, "unit": "%"}]}, {"substance": "PEPTIDE1{K.K.K.L.I.[W(BODIPY)].G}$PEPTIDE1,PEPTIDE1,1:R1-7:R2$$$V2.0", "values": [{"measurement": "final HPLC purity", "value": 97, "unit": "%"}, {"measurement": "isolated yield", "value": 91, "unit": "%"}]}, {"substance": "PEPTIDE1{K.K.K.V.I.[W(BODIPY)].G}$PEPTIDE1,PEPTIDE1,1:R1-7:R2$$$V2.0", "values": [{"measurement": "final HPLC purity", "value": 97, "unit": "%"}, {"measurement": "isolated yield", "value": 75, "unit": "%"}]}, {"substance": "PEPTIDE1{K.K.K.W.F.[W(BODIPY)].G}$PEPTIDE1,PEPTIDE1,1:R1-7:R2$$$V2.0", "values": [{"measurement": "final HPLC purity", "value": 98, "unit": "%"}, {"measurement": "isolated yield", "value": 38, "unit": "%"}]}, {"substance": "PEPTIDE1{K.K.K.W.W.[W(BODIPY)].G}$PEPTIDE1,PEPTIDE1,1:R1-7:R2$$$V2.0", "values": [{"measurement": "final HPLC purity", "value": 99, "unit": "%"}, {"measurement": "isolated yield", "value": 35, "unit": "%"}]}, {"substance": "PEPTIDE1{K.K.W.W.K.[W(BODIPY)].G}$PEPTIDE1,PEPTIDE1,1:R1-7:R2$$$V2.0", "values": [{"measurement": "final HPLC purity", "value": 99, "unit": "%"}, {"measurement": "isolated yield", "value": 64, "unit": "%"}]}, {"substance": "PEPTIDE1{K.K.W.W.W.[W(BODIPY)].G}$PEPTIDE1,PEPTIDE1,1:R1-7:R2$$$V2.0", "values": [{"measurement": "final HPLC purity", "value": 98, "unit": "%"}, {"measurement": "isolated yield", "value": 93, "unit": "%"}]}, {"substance": "PEPTIDE1{K.W.K.W.K.[W(BODIPY)].G}$PEPTIDE1,PEPTIDE1,1:R1-7:R2$$$V2.0", "values": [{"measurement": "final HPLC purity", "value": 99, "unit": "%"}, {"measurement": "isolated yield", "value": 77, "unit": "%"}]}, {"substance": "PEPTIDE1{K.W.W.K.K.[W(BODIPY)].G}$PEPTIDE1,PEPTIDE1,1:R1-7:R2$$$V2.0", "values": [{"measurement": "final HPLC purity", "value": 99, "unit": "%"}, {"measurement": "isolated yield", "value": 43, "unit": "%"}]}, {"substance": "PEPTIDE1{K.W.W.W.W.[W(BODIPY)].G}$PEPTIDE1,PEPTIDE1,1:R1-7:R2$$$V2.0", "values": [{"measurement": "final HPLC purity", "value": 99, "unit": "%"}, {"measurement": "isolated yield", "value": 92, "unit": "%"}]}, {"substance": "PEPTIDE1{W.W.K.K.K.[W(BODIPY)].G}$PEPTIDE1,PEPTIDE1,1:R1-7:R2$$$V2.0", "values": [{"measurement": "final HPLC purity", "value": 98, "unit": "%"}, {"measurement": "isolated yield", "value": 82, "unit": "%"}]}, {"substance": "c(RKKWFW(BODIPY)G)", "values": [{"measurement": "final HPLC purity", "value": 99, "unit": "%"}, {"measurement": "isolated yield", "value": 26, "unit": "%"}]}]}
